Reference: patent publication US20160289309A1
These are yes or no findings as the source states them, for the method shown. Binding can be weak; no strength is given.

Target: Tau in cerebrospinal fluid of cynomolgus monkeys (free Tau / extracellular Tau, eTau) (cynomolgus monkey (Macaca fascicularis))
Test: free-Tau ELISA on CSF of cynomolgus monkeys dosed with IPN002; the capture antibody competes with IPN002

binding: binds
B1: IPN002 (antibody, V domains shown)
VH: EVHLVESGGALVKPGGSLKLSCAASGFSFSKYGMSWVRQTPDKRLEWVATISSSGSRTYYPDSVKGQFTISRDNAKNTLYLQMSSLKSEDTAMYYCSISWDGAMDYWGQGTSVTVSS
VL: DVLMTQTPLSLPVSLGDQASISCKSSQSIVHSNGNTYLEWYLQKPGQSPKLLVYKVSNRFSGVPDRFSGSGSGTDFTLKISRVEAEDLGTYYCFQGSLVPWAFGGGTKLEIK
